No constants are given. Whether binding was seen depends on the method and setting. In cells and extracts the contact can be indirect. Some binding calls cover weakened binding; strength is not graded here.

Protein sequences, listed by entry. Tags and fused reporters are not part of them. Lines headed by an entry give the natural chain unless they say otherwise; changes in a name come on top. Residues count along the entry.
UniProt P33434, residues 30-662: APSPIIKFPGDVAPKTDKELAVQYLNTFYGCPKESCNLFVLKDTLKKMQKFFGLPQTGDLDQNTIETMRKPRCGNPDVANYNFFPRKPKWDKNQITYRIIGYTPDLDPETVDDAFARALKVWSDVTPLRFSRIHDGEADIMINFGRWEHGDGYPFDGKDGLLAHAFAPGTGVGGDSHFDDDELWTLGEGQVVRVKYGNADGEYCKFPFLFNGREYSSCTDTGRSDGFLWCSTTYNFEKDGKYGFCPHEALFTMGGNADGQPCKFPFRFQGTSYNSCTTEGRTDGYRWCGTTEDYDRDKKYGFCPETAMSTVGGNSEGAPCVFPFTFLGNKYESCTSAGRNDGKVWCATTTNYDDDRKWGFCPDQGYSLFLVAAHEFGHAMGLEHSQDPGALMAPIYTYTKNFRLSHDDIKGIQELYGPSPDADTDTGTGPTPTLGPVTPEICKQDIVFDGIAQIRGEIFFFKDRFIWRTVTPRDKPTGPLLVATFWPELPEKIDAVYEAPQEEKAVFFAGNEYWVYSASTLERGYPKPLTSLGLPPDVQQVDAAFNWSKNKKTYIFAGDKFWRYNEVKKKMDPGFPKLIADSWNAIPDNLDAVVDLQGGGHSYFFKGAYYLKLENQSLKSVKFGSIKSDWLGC
UniProt P14780, residues 20-707: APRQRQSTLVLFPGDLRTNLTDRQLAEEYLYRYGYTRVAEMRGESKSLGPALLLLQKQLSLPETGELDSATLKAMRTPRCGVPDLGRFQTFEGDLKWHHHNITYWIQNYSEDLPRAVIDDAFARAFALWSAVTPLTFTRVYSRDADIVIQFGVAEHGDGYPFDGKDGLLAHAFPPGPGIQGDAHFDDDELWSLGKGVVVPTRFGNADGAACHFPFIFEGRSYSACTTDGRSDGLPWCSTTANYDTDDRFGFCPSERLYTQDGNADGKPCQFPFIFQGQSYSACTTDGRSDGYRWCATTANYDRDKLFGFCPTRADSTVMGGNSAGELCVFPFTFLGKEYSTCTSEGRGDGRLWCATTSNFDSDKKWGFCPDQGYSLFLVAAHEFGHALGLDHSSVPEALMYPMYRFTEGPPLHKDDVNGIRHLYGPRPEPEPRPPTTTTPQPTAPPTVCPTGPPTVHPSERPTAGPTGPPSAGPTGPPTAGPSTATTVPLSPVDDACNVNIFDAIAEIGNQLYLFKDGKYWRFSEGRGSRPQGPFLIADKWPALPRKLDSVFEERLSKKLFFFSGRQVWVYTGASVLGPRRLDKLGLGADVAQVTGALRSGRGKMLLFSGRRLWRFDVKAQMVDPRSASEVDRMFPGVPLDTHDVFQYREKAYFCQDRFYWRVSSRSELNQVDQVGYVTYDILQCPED
UniProt P16035: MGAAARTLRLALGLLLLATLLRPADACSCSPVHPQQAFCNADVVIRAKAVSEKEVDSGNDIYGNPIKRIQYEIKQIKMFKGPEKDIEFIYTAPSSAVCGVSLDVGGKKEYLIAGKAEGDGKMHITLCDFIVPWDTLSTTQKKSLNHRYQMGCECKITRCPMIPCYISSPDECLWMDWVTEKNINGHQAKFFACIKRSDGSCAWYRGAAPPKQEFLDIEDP

Assay [1] addresses endogenous secreted MMP-2 in conditioned media of SYF and SYF+c-Src mouse embryonic fibroblast cells (mouse (endogenous protein of mouse embryonic fibroblast cell lines)) (UniProt P33434). Briefly: Ni-NTA pulldown from CM of transfected SYF and SYF+c-Src cells, immunoblot.
Assay [2] has as its target endogenous MMP-9 in 293H conditioned media (human (endogenous protein of a human cell line)) (UniProt P14780). Put plainly: Ni-NTA pulldown from HEK293H CM, anti-MMP-9 immunoblot.

Turning to “TIMP-2 Y62E/Y90E/Y165E-His6 (from UniProt P16035 27-220)”, the binding result in assay [1] is given as “binds”.
Turning to “TIMP-2 Y90E-His6 (from UniProt P16035 27-220)”, the binding entry in assay [2] is “binds”.
Same read-out and setting: the same measure for “wild type human TIMP-2 with C-terminal His6 tag (WT TIMP-2-His6) (from UniProt P16035 27-220)”: “binds”.

These data come from US20190322724A1.
